According to US20180200257A1, “METHODS FOR THE TREATMENT OF INFLAMMATORY DISORDERS” (Galapagos NV, priority 2015, published 2018):
Further values from the same series stand in other lists.

Test system: subjects with moderately to severely active RA who have an inadequate response to methotrexate (MTX)
Assay: Study 2 (monotherapy) - ACR responses (ACR20/50/70)
Format: in vivo, human
Text: The terms “ACR20”, “ACR50” and “ACR70” as used herein are scores which indicate how much a patient's rheumatoid arthritis has improved according to criteria set out by the American College of Rheumatology (ACR). The ACR score represents a percentage. An ACR20 score means that a person's RA has improved by 20%, an ACR50 score means it has improved by 50%, and an ACR70 score means it has improved by 70%. Specifically, to qualify for an ACR20 score, a person with RA must have at least 20% fewer tender joints and at least 20% fewer swollen joints. In addition the patient must show a 20% improvement in at least three of the following five areas: the person's overall (global) assessment of his or her own RA, the physician's global assessment of the person's RA, the person's assessment of his or her own pain, the person's assessment of his or her own physical functioning, and the results of an erythrocyte sedimentation rate or C-reactive protein (CRP) blood test (both of which test for inflammation). ACR50 and ACR70 scores use the same criteria but require 50% and 70% improvement, respectively, (Felson et al., 1993). In the data presented herein the CRP blood test is used.
Randomized, double-blind, placebo-controlled, multicenter, phase IIb dose finding study of Compound 1 (dosed as a [Compound 1:HCl:3H2O]) administered for 24 weeks as monotherapy to subjects with moderately to severely active rheumatoid arthritis who have an inadequate response to methotrexate alone
Double-blind, placebo-controlled, monotherapy study in subjects with moderately to severely active RA who have an inadequate response to methotrexate (MTX) (oral or parenteral).
280 subjects randomized to one of 3 doses of Compound 1 (dosed as a [Compound 1:HCl:3H2O]) or to placebo, given once daily (q.d.).
Twelve weeks of treatment with Compound 1 (dosed as a [Compound 1:HCl:3H2O]) at 50 mg, 100 mg, or 200 mg q.d.; or placebo. At Week 12, all subjects on placebo and the subjects on the 50 mg dose who have not achieved 20% improvement in swollen joint count (SJC66) and tender joint count (TJC68) will be assigned to 100 mg q.d. in a blinded fashion and will continue treatment until Week 24. Subjects in the other groups will maintain their randomized treatment until Week 24.
The American College of Rheumatology (ACR) composite score, which evaluates clinical improvement relative to an initial assessment, is a commonly accepted efficacy end point for clinical trials in patients with rheumatoid arthritis. The ACR score correspond to a percentage improvement in pre-set parameters, and therefore measures the evolution of the disease in a patient. For example, ACR20 denotes at least 20% improvement in tender and swollen joint counts and in three of the following end points: global assessment by the patient, global assessment by the doctor, C reactive protein (CRP), patient's pain Visual Analogue Scale and Health Assessment Questionnaire Score. The number of swollen joints, ESR and CRP correlate with radiographic progression of joint damage, whereas tender joint counts, as well as global assessments by doctors and patients, and patients' reports of pain, are sensitive to change in clinical outcomes. Physical function, as assessed by the Health Assessment Questionnaire Score, is a potent predictor of the risk of disability in rheumatoid arthritis (Felson and American College of Rheumatology Committee to Reevaluate Improvement Criteria, 2007; Felson et al., 1993).
In particular, the list of parameters used to assess ACR score can be found in the Table XCVI below and the results of the ACR responses at week 12 via either NRI or LOCF are shown in the tables below. The Hommel-corrected p-value for the pairwise comparisons of each group with placebo is shown. […]

[1] = 50 mg q.d., week 12, 12 weeks results
[2] = 50 mg q.d., week 12, 24 weeks results
[3] = 50 mg q.d., week 16, 24 weeks results
[4] = 50 mg q.d., week 20, 24 weeks results
[5] = 50 mg q.d., week 24, 24 weeks results
[6] = 100 mg q.d., week 8, 24 weeks results
[7] = 100 mg q.d., week 12, 12 weeks results
[8] = 100 mg q.d., week 12, 24 weeks results
[9] = 100 mg q.d., week 16, 24 weeks results
[10] = 100 mg q.d., week 20, 24 weeks results
[11] = 100 mg q.d., week 24, 24 weeks results
[12] = 200 mg q.d., week 8, 24 weeks results
[13] = 200 mg q.d., week 12, 12 weeks results
[14] = 200 mg q.d., week 12, 24 weeks results
[15] = 200 mg q.d., week 16, 24 weeks results
[16] = 200 mg q.d., week 20, 24 weeks results
[17] = 200 mg q.d., week 24, 24 weeks results

O=C(Nc1nc2cccc(-c3ccc(CN4CCS(=O)(=O)CC4)cc3)n2n1)C1CC1 [Compound 1, cyclopropanecarboxylic acid {5-[4-(1,1-dioxo-thiomorpholin-4-ylmethyl)-phenyl]-[1,2,4]triazolo[1,5-a]pyridin-2-yl}-amide]
ACR20 (LOCF) [1]: 68.1%%
ACR20 (NRI) [1]: 66.7%%
ACR50 (LOCF) [1]: 36.1%%
ACR70 (LOCF) [1]: 8.3%%
ACR20 (LOCF) [2]: 66.7%
ACR20 (NRI) [2]: 66.7%
ACR50 (LOCF) [2]: 34.7%
ACR70 (LOCF) [2]: 8.3%
ACR20 (LOCF) [3]: 61.1%
ACR20 (NRI) [3]: 55.6%
ACR50 (LOCF) [3]: 36.1%
ACR70 (LOCF) [3]: 15.3%
ACR20 (LOCF) [4]: 58.3%
ACR20 (NRI) [4]: 51.4%
ACR50 (LOCF) [4]: 33.3%
ACR70 (LOCF) [4]: 13.9%
ACR20 (LOCF) [5]: 65.3%
ACR20 (NRI) [5]: 56.9%
ACR50 (LOCF) [5]: 36.1%
ACR70 (LOCF) [5]: 19.4%
ACR20 (LOCF) [6]: 61.4%
ACR20 (NRI) [6]: 61.4%
ACR50 (LOCF) [6]: 25.7%
ACR70 (LOCF) [6]: 11.4%
ACR20 (LOCF) [7]: 65.7%%
ACR20 (NRI) [7]: 65.7%%
ACR50 (LOCF) [7]: 32.9%%
ACR70 (LOCF) [7]: 18.6%%
ACR20 (LOCF) [8]: 67.1%
ACR20 (NRI) [8]: 67.1%
ACR50 (LOCF) [8]: 35.7%
ACR70 (LOCF) [8]: 18.6%
ACR20 (LOCF) [9]: 71.4
ACR20 (NRI) [9]: 70.0
ACR50 (LOCF) [9]: 40.0%
ACR70 (LOCF) [9]: 17.1%
ACR20 (LOCF) [10]: 72.9%
ACR20 (NRI) [10]: 70.0%
ACR50 (LOCF) [10]: 42.9%
ACR70 (LOCF) [10]: 25.7%
ACR20 (LOCF) [11]: 80.0%
ACR20 (NRI) [11]: 77.1%
ACR50 (LOCF) [11]: 41.4%
ACR70 (LOCF) [11]: 25.7%
ACR20 (LOCF) [12]: 73.9%
ACR20 (NRI) [12]: 73.9%
ACR50 (LOCF) [12]: 33.3%
ACR70 (LOCF) [12]: 17.4%
ACR20 (LOCF) [13]: 72.5%%
ACR20 (NRI) [13]: 72.5%%
ACR50 (LOCF) [13]: 42.0%%
ACR70 (LOCF) [13]: 13.0%%
ACR20 (LOCF) [14]: 72.5%
ACR20 (NRI) [14]: 72.5%
ACR50 (LOCF) [14]: 43.5%
ACR70 (LOCF) [14]: 13.0%
ACR20 (LOCF) [15]: 73.9
ACR20 (NRI) [15]: 73.9
ACR50 (LOCF) [15]: 40.6%
ACR70 (LOCF) [15]: 18.8%
ACR20 (LOCF) [16]: 75.4%
ACR20 (NRI) [16]: 75.4%
ACR50 (LOCF) [16]: 44.9%
ACR70 (LOCF) [16]: 24.6%
ACR20 (LOCF) [17]: 73.9%
ACR20 (NRI) [17]: 68.1%
ACR50 (LOCF) [17]: 49.3%
ACR70 (LOCF) [17]: 27.5%
